Assay results reported in publication PMC5552905, “Mechanisms of peptide sex pheromone regulation of conjugation in Enterococcus faecalis” (MicrobiologyOpen, 2017).
Results are given in words; binding and its absence hold for the method and conditions named. Some results given as binding are weak or reduced against the parent protein; the word gives no strength. Where a sequence is shown, tags or fusion partners need not be part of it.

Target: His-tagged PrgX (Enterococcus faecalis (plasmid pCF10)) (UniProt Q04114)
Test: SEC; PrgX exposed to the control peptide cAD1; data not shown; both purified

B1: His-tagged PrgX (natural protein, Enterococcus faecalis (plasmid pCF10), UniProt Q04114 1-317, looked up)
chain: MFKIGSVLKQIRQELNYHQIDLYSGIMSKSVYIKVEADSRPISVEELSKFSERLGVNFFEILNRAGMNTKSVNETGKEKLLISKIFTNPDLFDKNFQRIEPKRLTSLQYFSIYLGYISIAHHYNIEVPTFNKTITSDLKHLYDKRTTFFGIDYEIVSNLLNVLPYEEVSSIIKPMYPIVDSFGKDYDLTIQTVLKNALTISIMNRNLKEAQYYINQFEHLKTIKNISINGYYDLEINYLKQIYQFLTDKNIDSYLNAVNIINIFKIIGKEDIHRSLVEELTKISAKEKFTPPKEVTMYYENYVAIENNPIPEIKEQS
notes: PrgX, master transcription regulator and sex pheromone receptor encoded by the Enterococcus faecalis plasmid pCF10; also called HisPrgX; Apo-PrgX
Q: Which binding does the source give for B1 here?
A: The binding was “binds”.
